Taken from: PubChem BioAssay AID1259424 (University of Nebraska Medical Center, 2018)

Purpose: 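Rank knockdowns across the genome by resemblance to the KSR1 depletion profile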 (primary screen)
Cell system: human HCT116 colon cancer cells
Reagents: siRNA pool against human genes, 50 nM
Read-out: 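Six signature mRNAs by branched-DNA multiplex assay, scaled to two housekeeping genes and non-targeting median, log2; matched to mean KSR1 knockdown profile by Pearson correlation and euclidean distance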
Scale: mean correlation with KSR1 profile: higher = expression change more like KSR1 knockdown
The whole screen tested about 14,000 reagents; this is a random part of them. 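Higher correlation or smaller distance means closer resemblance to KSR1 loss; control wells, including KSR1 knockdowns, recur on many plates.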 Reagents against one gene are numbered here. Not all columns of the deposit are shown. Reagent sequences are not shown. Not given: the time to read-out.

mean correlation with KSR1 profile, by target and reagent
PPAN (peter pan homolog): #1 -0.459
ENG (endoglin): #1 0.243
SLC25A11: #1 -0.202
KCNK6 (potassium two pore domain channel subfamily K member 6): #1 -0.0447
SLC22A3: #1 -0.018
EFNB1 (ephrin B1): #1 0.0469
SLC4A11: #1 0.675
DIDO1 (death inducer-obliterator 1): #1 0.459; #2 0.00421
SRPX (sushi repeat containing protein X-linked): #1 -0.307
MAU2: #1 -0.868
FANCA (FA complementation group A): #1 -0.453
DNAI4 (dynein axonemal intermediate chain 4): #1 0.704
UBQLN1 (ubiquilin 1): #1 0.675
DCLK2 (doublecortin like kinase 2): #1 0.247
MRPL37 (mitochondrial ribosomal protein L37): #1 -0.45
SLC34A1: #1 -0.232
TRIM3 (tripartite motif containing 3): #1 -0.681
BIK (BCL2 interacting killer): #1 -0.0379
DHX8 (DEAH-box helicase 8): #1 -0.0218
ZMYND11 (zinc finger MYND-type containing 11): #1 0.413
TNKS2 (tankyrase 2): #1 0.581
PROK1 (prokineticin 1): #1 0.196
EYA3 (EYA transcriptional coactivator and phosphatase 3): #1 -0.318
SURF1 (SURF1 cytochrome c oxidase assembly factor): #1 -0.634
PKIG (cAMP-dependent protein kinase inhibitor gamma): #1 -0.638
RNF112 (ring finger protein 112): #1 0.0869
CTAG2 (cancer/testis antigen 2): #1 0.37
DBNDD1 (dysbindin domain containing 1): #1 0.0658
HCP5 (HLA complex P5): #1 -0.111
CPT1A (carnitine palmitoyltransferase 1A): #1 -0.0487
CATSPER2 (cation channel sperm associated 2): #1 0.379
ABRAXAS2 (abraxas 2, BRISC complex subunit): #1 -0.0268
GRIK4 (glutamate ionotropic receptor kainate type subunit 4): #1 -0.439
DUSP6 (dual specificity phosphatase 6): #1 -0.0897
COL1A2 (collagen type I alpha 2 chain): #1 0.0192
UNKL (unk like zinc finger): #1 0.57; #2 -0.22
GPR158 (G protein-coupled receptor 158): #1 -0.0467
CRYAA (crystallin alpha A): #1 -0.142
GPRC5D (G protein-coupled receptor class C group 5 member D): #1 -0.0398
RCL1 (RNA terminal phosphate cyclase like 1): #1 0.246
PFN1 (profilin 1): #1 -0.381
GJC1 (gap junction protein gamma 1): #1 0.242
KIF7 (kinesin family member 7): #1 -0.544
TET1 (tet methylcytosine dioxygenase 1): #1 -0.369
TAS2R39 (taste 2 receptor member 39): #1 0.677
ADAMTS9 (ADAM metallopeptidase with thrombospondin type 1 motif 9): #1 0.624
TMEM222 (transmembrane protein 222): #1 0.892
GFI1B (growth factor independent 1B transcriptional repressor): #1 0.741
